These are yes or no findings as the source states them, for the method shown. Some entries that bind do so weakly or less than the wild type.
Target: PD-L1 (human) (UniProt Q9NZQ7)
Test: flow cytometry on OVCAR-3 cells, REMD290 as staining antibody

Chains of the proteins cited; added tags and fusions are not shown. Residues count along the entry.
UniProt Q9NZQ7, residues 19-290: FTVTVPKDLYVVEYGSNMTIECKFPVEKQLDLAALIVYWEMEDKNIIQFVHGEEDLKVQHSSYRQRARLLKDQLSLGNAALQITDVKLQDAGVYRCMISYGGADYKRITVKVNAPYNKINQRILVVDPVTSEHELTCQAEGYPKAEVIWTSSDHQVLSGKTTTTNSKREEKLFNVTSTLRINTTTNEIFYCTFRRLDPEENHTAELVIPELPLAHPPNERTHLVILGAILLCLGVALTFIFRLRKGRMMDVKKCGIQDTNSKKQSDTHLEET

B1: anti-PD-L1 mAb (REMD290) (antibody, human IgG4 S228P, kappa, V domains shown)
VH: QMQLVQSGAEVKKTGSSVKVSCKASGYTFTSYSINWVRQAPGKGLEWVAYFYVGNGYTDYNEKFKGRVTMTRDTSTSTVYMELSSLRSEDTAVYYCARGGLPYYFDYWGQGTLVTVSS
VL: DIQMTQSPSSVSASVGDRVTITCKTSQDVNTAVAWYQQKPGQAPRLLIYWASTRHTGVPDRFSGSGSGTDFTLTISSLQAEDVAVYYCQQHYNTPLTFGGGTKLEIKR
binding: binds

— patent US20250145680A1 (REMD BIOTHERAPEUTICS, published 2025)
